Data as given in PubChem BioAssay AID1259254 (NCATS, 2017).

- Purpose: 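Finding genes that stop cells copying their DNA twice in one cycle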 (primary screen)
- System: human HCT116 colorectal cancer cells
- Reagent: single siRNA against human genes
- Duration: 3 days
- Detection: 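Imaged Hoechst DNA stain sorts each cell into a cycle phase by DNA amount; per plate, G2 fraction set to 0% for non-targeting and 100% for GMNN siRNA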
- Direction: G2 robust z-score and G2 cells, % of GMNN control: higher = more G2 cells, more excess DNA replication; raw share of cells in G2: higher = larger share of cells with G2 DNA content
- Call rule: 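An siRNA counts as active if its G2 robust z-score lies at least 5 MADs above the screen median; here such calls match roughly 38% of GMNN control or more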
The deposit covers about 59,000 reagents; below is an unselected part. Over the whole deposit, about 1,550 (2.6%) were called active. 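G2 share is only a proxy for re-replication; each gene was hit by three separate siRNAs, and active genes were retested.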 The raw values are shown without normalisation. A number with no mark means an inactive call. Reagents against one gene are numbered here. The record does not give: the amount of reagent.

gene symbol	reagent no.	G2 robust z-score	G2 cells, % of GMNN control	raw share of cells in G2 (%)
DBP (D-box binding PAR bZIP transcription factor)	1	0.25	4.73	6.65
DBP (D-box binding PAR bZIP transcription factor)	2	1.26	11.9	9.33
DBP (D-box binding PAR bZIP transcription factor)	3	0.881	9.17	7.25
AZI2 (5-azacytidine induced 2)	1	-0.226	1.37	5.18
AZI2 (5-azacytidine induced 2)	2	1.3	12.1	10.1
AZI2 (5-azacytidine induced 2)	3	-0.0987	2.27	3.3
GABRG1 (gamma-aminobutyric acid type A receptor subunit gamma1)	1	0.00587	3.01	6.38
GABRG1 (gamma-aminobutyric acid type A receptor subunit gamma1)	2	0.23	4.59	6.33
GABRG1 (gamma-aminobutyric acid type A receptor subunit gamma1)	3	-0.0798	2.41	5.31
CCNG2 (cyclin G2)	1	2.11	17.8	11.3
CCNG2 (cyclin G2)	2	0.662	7.63	7.78
CCNG2 (cyclin G2)	3	3.39	26.8	13.3
HERPUD2 (HERPUD family member 2)	1	1.09	10.6	9.2
HERPUD2 (HERPUD family member 2)	2	2.31	19.2	13.2
HERPUD2 (HERPUD family member 2)	3	1.93	16.6	7.07
CACNA2D4	1	0.193	4.33	6.86
CACNA2D4	2	1.05	10.4	8.29
CACNA2D4	3	-0.615	-1.36	3.84
CSRNP1 (cysteine and serine rich nuclear protein 1)	1	-1.03	-4.31	2.7
CSRNP1 (cysteine and serine rich nuclear protein 1)	2	-0.206	1.52	5.29
CSRNP1 (cysteine and serine rich nuclear protein 1)	3	1.54	13.8	6.34
RBM39 (RNA binding motif protein 39)	1	0.766	8.35	8.36
RBM39 (RNA binding motif protein 39)	2	1.64	14.5	10.6
RBM39 (RNA binding motif protein 39)	3	-0.0325	2.74	4.13
RPL31 (ribosomal protein L31)	1	5.06 (active)	38.5	21.4
RPL31 (ribosomal protein L31)	2	4.53	34.9	18
RPL31 (ribosomal protein L31)	3	2.55	20.9	10.9
EGR1 (early growth response 1)	1	3.92	30.6	16.3
EGR1 (early growth response 1)	2	0.473	6.3	7.66
EGR1 (early growth response 1)	3	0.56	6.91	6.12
PIEZO1P1	1	-0.054	2.59	3.87
PIEZO1P1	2	0.108	3.73	5.18
PIEZO1P1	3	-0.576	-1.08	2.82
POT1 (protection of telomeres 1)	1	-0.826	-2.84	3.06
POT1 (protection of telomeres 1)	2	1.28	12	8.16
POT1 (protection of telomeres 1)	3	-0.53	-0.762	5.82
CFLAR (CASP8 and FADD like apoptosis regulator)	1	8.09 (active)	59.9	26.4
CFLAR (CASP8 and FADD like apoptosis regulator)	2	2.34	19.5	11.8
CFLAR (CASP8 and FADD like apoptosis regulator)	3	0.0487	3.31	5.14
NKAIN3 (sodium/potassium transporting ATPase interacting 3)	1	3.63	28.5	14
NKAIN3 (sodium/potassium transporting ATPase interacting 3)	2	-0.602	-1.27	2.55
NKAIN3 (sodium/potassium transporting ATPase interacting 3)	3	0.749	8.24	5.77
XRN1 (5'-3' exoribonuclease 1)	1	2.84	23	16.4
XRN1 (5'-3' exoribonuclease 1)	2	1.27	11.9	8.65
XRN1 (5'-3' exoribonuclease 1)	3	-1.26	-5.91	1.53

9 entries from above, ordered by “G2 robust z-score”, high to low:
gene symbol	reagent no.	G2 robust z-score	G2 cells, % of GMNN control	raw share of cells in G2 (%)
RPL31 (ribosomal protein L31)	1	5.06 (active)	38.5	21.4
RPL31 (ribosomal protein L31)	2	4.53	34.9	18
EGR1 (early growth response 1)	1	3.92	30.6	16.3
RPL31 (ribosomal protein L31)	3	2.55	20.9	10.9
RBM39 (RNA binding motif protein 39)	2	1.64	14.5	10.6
RBM39 (RNA binding motif protein 39)	1	0.766	8.35	8.36
EGR1 (early growth response 1)	3	0.56	6.91	6.12
EGR1 (early growth response 1)	2	0.473	6.3	7.66
RBM39 (RNA binding motif protein 39)	3	-0.0325	2.74	4.13

The listing continues.
gene symbol	reagent no.	G2 robust z-score	G2 cells, % of GMNN control	raw share of cells in G2 (%)
INSYN2A (inhibitory synaptic factor 2A)	1	-0.304	0.829	3.95
INSYN2A (inhibitory synaptic factor 2A)	2	0.358	5.49	5.25
INSYN2A (inhibitory synaptic factor 2A)	3	-0.15	1.91	3.7
PCDHGA4 (protocadherin gamma subfamily A, 4)	1	1.07	10.5	11
PCDHGA4 (protocadherin gamma subfamily A, 4)	2	0.176	4.21	5.95
PCDHGA4 (protocadherin gamma subfamily A, 4)	3	-0.116	2.15	5.23
NLGN4X (neuroligin 4 X-linked)	1	4.08	31.7	18.8
NLGN4X (neuroligin 4 X-linked)	2	0.612	7.27	6.92
NLGN4X (neuroligin 4 X-linked)	3	-0.118	2.13	5
NKX1-1 (NK1 homeobox 1)	1	-1.02	-4.18	1.81
NKX1-1 (NK1 homeobox 1)	2	-0.232	1.34	4.08
NKX1-1 (NK1 homeobox 1)	3	1.54	13.8	10.1
LY6H (lymphocyte antigen 6 family member H)	1	-0.00371	2.94	5.38
LY6H (lymphocyte antigen 6 family member H)	2	1.05	10.4	7.11
LY6H (lymphocyte antigen 6 family member H)	3	-0.585	-1.15	4.48
ADPRH (ADP-ribosylarginine hydrolase)	1	2.7	22	12.2
ADPRH (ADP-ribosylarginine hydrolase)	2	-0.173	1.75	5.7
ADPRH (ADP-ribosylarginine hydrolase)	3	0.739	8.17	7.03
DSCAML1 (DS cell adhesion molecule like 1)	1	1.3	12.1	8.62
DSCAML1 (DS cell adhesion molecule like 1)	2	5.16 (active)	39.3	18.5
DSCAML1 (DS cell adhesion molecule like 1)	3	0.533	6.72	8.43
TSPY3 (testis specific protein Y-linked 3)	1	-0.433	-0.0769	3.57
TSPY3 (testis specific protein Y-linked 3)	2	-0.0653	2.51	4.49
TSPY3 (testis specific protein Y-linked 3)	3	1.93	16.5	8.7
